Results from publication PMC2673036, “Ancient mtDNA Genetic Variants Modulate mtDNA Transcription and Replication”.

Target: T1, TFAM (mitochondrial transcription factor A) (UniProt Q00059)
T1 sequence (looked up, limits assumed): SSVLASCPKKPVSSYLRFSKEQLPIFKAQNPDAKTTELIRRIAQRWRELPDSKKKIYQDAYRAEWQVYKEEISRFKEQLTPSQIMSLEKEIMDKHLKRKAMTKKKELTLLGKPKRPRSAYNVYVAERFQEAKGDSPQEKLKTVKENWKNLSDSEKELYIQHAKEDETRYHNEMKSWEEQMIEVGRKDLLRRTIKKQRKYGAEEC
Assay: EMSA
Details: data not shown, 10 mM Tris-HCl pH 7.5, 10 mM KCl, 1 mM DTT, 1 mM EDTA, 6% glycerol, 3 nM probe, 30 or 75 nM TFAM, 30 min, room temperature, 5% native PAGE, 0.5x TBE, recombinant protein

| Sequence | binding result (reference for C242T) | binding result (no significant difference from wild type) |
| --- | --- | --- |
| TAATAATAACAATTGAATGTCTGCACAG (double strand) [Wild type 242 (CRS 233-260)] | binds |  |
| TAATAATAATAATTGAATGTCTGCACAG (double strand) [C242T-VAR (J1b, 233-260)] |  | binds |

Construct, isoform or probe ends are uncertain for at least one entry. At least one verdict was read from the data and is not stated in words by the source. Protein sequences can lack the tags named with them.
